± gives the standard deviation of the averaged measurements. The list shows a part of the results, in another mix than the full data.

Chains of the proteins cited; added tags and fusions are not shown. Lines headed by an entry give the natural chain unless they say otherwise; changes in a name come on top.
UniProt Q12899: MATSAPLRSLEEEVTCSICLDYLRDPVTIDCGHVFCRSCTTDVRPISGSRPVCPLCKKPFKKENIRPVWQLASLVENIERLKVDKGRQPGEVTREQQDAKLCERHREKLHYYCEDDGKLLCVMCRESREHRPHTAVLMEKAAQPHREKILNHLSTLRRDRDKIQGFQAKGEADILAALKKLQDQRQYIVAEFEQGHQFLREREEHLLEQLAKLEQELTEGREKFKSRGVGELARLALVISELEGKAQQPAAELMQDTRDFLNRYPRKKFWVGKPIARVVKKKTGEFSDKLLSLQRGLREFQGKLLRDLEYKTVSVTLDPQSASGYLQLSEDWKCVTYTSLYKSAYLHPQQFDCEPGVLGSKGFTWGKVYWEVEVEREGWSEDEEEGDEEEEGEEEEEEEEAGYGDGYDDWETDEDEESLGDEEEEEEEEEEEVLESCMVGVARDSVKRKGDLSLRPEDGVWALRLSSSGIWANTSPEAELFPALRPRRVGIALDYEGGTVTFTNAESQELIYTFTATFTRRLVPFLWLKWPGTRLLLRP
UniProt Q06481, whole entry: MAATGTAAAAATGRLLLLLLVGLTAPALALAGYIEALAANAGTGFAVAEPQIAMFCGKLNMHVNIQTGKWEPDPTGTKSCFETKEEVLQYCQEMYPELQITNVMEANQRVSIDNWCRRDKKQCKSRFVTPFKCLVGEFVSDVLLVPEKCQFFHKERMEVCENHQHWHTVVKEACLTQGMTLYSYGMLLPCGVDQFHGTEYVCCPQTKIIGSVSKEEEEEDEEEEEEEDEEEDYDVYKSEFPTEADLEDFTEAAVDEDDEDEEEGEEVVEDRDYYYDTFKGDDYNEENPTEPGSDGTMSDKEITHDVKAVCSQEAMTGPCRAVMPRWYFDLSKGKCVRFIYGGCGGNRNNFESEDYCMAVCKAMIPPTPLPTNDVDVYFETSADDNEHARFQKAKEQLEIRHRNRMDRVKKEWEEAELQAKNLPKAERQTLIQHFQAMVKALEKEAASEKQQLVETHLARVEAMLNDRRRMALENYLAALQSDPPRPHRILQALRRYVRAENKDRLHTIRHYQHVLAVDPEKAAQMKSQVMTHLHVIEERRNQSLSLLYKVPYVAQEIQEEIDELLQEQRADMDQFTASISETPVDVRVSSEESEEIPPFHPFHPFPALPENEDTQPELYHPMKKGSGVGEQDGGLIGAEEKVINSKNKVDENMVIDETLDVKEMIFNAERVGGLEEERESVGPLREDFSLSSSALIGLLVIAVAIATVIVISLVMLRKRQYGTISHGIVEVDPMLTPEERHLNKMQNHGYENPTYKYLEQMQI
UniProt Q12959, whole entry, looked up: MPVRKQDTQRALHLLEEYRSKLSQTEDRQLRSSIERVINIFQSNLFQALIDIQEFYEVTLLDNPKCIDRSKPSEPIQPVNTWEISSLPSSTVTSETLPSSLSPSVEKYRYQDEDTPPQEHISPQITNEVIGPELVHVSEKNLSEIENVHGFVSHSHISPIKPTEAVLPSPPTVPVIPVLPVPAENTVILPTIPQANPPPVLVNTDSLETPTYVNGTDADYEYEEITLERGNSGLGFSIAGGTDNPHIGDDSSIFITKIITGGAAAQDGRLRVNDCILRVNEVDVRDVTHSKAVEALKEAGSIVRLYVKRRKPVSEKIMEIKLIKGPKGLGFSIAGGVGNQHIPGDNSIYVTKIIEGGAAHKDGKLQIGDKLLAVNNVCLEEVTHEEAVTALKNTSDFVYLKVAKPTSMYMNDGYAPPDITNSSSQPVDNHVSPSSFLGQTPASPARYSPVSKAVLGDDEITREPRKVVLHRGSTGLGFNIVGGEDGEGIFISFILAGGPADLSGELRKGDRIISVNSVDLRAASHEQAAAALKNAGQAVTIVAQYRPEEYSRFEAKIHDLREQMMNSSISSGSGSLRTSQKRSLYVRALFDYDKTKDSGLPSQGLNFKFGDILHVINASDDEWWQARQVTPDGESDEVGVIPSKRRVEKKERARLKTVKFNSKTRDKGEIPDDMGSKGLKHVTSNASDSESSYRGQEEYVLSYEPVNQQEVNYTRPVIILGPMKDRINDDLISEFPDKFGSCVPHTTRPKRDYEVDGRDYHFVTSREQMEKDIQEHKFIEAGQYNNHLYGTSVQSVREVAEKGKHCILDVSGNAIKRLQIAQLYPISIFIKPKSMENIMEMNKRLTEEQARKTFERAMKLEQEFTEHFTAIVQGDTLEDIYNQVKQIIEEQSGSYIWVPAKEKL
UniProt Q13242, whole entry: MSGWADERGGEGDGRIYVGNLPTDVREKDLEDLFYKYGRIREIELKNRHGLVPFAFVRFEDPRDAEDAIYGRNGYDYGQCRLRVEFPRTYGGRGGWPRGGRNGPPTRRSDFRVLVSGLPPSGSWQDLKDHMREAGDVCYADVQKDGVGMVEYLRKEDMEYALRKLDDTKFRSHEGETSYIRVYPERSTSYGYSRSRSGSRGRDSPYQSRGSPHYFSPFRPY
UniProt Q13367: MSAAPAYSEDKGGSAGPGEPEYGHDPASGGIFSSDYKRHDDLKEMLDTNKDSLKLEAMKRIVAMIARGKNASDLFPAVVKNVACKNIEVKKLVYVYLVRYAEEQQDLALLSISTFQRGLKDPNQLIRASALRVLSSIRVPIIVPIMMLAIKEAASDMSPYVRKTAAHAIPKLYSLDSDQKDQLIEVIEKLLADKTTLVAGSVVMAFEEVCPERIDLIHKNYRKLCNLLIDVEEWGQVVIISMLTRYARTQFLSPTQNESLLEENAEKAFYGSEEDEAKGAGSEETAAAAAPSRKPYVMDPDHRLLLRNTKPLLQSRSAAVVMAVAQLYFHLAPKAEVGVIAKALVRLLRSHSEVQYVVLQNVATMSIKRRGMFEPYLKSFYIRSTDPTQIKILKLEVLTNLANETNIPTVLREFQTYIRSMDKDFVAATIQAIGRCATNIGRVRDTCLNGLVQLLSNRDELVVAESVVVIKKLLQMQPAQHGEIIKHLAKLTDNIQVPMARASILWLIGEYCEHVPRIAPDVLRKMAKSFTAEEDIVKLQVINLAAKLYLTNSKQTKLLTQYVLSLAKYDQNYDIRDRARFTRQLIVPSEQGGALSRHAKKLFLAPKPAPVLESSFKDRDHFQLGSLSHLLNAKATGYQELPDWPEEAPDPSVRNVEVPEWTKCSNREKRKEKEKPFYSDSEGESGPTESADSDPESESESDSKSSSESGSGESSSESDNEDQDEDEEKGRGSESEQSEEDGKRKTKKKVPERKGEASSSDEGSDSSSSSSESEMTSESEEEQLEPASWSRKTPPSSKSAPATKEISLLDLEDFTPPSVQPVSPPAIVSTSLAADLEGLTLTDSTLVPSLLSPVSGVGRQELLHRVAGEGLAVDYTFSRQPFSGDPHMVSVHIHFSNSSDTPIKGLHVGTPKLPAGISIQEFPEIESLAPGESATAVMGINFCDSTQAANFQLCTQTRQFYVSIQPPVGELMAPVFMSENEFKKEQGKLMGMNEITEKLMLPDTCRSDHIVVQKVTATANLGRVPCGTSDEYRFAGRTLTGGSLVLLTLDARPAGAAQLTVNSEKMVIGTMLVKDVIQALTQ
UniProt Q0VD83: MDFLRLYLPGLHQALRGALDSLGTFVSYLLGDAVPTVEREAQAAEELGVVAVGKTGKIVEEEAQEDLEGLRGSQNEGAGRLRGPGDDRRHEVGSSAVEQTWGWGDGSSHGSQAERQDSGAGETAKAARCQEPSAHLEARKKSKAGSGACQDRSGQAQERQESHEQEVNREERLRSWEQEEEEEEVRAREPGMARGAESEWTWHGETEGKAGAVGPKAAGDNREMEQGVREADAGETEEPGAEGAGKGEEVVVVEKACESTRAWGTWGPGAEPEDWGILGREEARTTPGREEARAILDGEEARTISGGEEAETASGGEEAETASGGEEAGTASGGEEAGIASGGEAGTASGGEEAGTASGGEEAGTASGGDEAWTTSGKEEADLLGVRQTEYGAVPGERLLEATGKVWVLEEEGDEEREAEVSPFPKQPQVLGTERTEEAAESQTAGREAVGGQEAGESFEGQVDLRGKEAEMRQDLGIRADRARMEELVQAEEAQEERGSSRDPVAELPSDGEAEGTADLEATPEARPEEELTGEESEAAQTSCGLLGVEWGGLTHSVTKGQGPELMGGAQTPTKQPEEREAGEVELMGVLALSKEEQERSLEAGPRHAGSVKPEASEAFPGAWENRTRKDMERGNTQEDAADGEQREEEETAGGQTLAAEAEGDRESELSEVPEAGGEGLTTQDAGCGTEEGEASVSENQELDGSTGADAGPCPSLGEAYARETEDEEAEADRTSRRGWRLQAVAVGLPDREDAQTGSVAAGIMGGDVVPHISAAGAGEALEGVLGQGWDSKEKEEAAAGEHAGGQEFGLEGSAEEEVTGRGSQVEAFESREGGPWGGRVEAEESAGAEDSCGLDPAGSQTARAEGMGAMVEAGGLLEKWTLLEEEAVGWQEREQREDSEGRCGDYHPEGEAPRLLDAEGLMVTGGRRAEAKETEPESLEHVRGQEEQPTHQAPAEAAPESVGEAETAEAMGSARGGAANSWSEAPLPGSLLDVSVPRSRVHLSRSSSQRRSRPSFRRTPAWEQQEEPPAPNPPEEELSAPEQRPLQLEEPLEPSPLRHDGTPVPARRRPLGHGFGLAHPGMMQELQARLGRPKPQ
UniProt Q00796: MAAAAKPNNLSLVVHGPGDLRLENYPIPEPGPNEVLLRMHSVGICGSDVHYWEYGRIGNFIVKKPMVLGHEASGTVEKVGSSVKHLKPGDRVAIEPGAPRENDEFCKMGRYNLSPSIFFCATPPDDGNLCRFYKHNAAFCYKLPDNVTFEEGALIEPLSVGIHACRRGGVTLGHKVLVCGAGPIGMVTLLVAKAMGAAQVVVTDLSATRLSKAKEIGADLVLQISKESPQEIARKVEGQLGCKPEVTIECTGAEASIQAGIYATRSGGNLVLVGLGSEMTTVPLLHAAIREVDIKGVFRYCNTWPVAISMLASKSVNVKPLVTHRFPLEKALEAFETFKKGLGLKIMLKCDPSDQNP
UniProt Q13310, whole entry: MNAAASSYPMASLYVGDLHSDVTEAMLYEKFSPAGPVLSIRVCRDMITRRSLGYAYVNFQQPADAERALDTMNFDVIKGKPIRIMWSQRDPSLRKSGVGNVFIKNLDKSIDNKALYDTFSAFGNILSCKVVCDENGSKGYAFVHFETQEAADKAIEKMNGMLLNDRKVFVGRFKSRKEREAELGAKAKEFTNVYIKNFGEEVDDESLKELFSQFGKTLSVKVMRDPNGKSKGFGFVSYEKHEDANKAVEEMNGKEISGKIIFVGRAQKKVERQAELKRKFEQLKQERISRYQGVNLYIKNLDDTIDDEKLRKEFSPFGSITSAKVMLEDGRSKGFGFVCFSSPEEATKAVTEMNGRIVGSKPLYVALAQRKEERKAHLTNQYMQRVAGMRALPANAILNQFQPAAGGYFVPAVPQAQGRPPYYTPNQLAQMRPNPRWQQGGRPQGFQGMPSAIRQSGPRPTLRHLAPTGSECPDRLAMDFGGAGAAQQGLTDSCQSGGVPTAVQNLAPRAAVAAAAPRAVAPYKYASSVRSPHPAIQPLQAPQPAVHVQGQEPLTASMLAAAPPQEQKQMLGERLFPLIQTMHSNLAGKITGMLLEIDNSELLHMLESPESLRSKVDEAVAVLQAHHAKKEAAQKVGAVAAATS
UniProt Q08257: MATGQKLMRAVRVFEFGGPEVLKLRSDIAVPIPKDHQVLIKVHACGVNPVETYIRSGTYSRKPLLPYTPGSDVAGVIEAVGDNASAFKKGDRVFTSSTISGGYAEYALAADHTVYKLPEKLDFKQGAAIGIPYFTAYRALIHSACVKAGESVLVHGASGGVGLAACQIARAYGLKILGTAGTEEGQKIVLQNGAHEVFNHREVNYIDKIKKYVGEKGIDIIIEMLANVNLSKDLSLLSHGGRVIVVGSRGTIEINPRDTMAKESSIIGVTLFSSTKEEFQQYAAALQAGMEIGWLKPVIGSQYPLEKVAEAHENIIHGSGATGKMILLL
UniProt Q14145, whole entry: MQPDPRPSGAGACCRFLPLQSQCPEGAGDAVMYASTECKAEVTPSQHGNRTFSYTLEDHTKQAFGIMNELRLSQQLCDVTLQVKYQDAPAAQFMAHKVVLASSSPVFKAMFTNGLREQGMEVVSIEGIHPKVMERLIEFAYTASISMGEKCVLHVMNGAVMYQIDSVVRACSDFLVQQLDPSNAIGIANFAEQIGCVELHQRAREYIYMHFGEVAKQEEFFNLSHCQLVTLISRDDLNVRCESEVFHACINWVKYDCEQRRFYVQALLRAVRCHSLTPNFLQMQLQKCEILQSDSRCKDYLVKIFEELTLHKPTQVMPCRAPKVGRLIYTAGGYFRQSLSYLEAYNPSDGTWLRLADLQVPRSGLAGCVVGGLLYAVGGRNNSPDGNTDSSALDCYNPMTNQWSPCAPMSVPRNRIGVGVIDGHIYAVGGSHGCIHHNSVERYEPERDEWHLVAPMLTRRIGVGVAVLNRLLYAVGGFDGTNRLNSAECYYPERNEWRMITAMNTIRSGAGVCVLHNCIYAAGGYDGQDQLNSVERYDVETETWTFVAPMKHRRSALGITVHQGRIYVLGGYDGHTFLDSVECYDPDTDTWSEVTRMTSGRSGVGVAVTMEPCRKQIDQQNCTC

Compound in the assay: Nc1ncnc2c1ncn2[C@@H]1O[C@H](COP(=O)(O)OP(=O)(O)OP(=O)(O)O)[C@@H](O)[C@H]1O [adenosine triphosphate]
Kind of assay: NP40-soluble protein abundance relative to vehicle (solubility fold change) (ratio); higher = more soluble protein in presence of ATP. The gist of the method:
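Data come from three independent experiments in which Dounce-homogenised Jurkat crude lysate was treated at eight concentrations from 0.1 to 10 mM. Treatment ran 10 min at room temperature and then 3 min at 37 °C, after which 0.8% NP40 and benzonase were added for 60 min at 4 °C before ultracentrifugation. The supernatant underwent TMT labelling and LC-MS/MS, and vsn-normalised intensities were expressed as fold change against the detergent-processed vehicle in each replicate.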

As for UniProt Q12888 and related entries, the NP40-soluble protein abundance (concentration: 1mM) was 0.945 ± 0.031; the NP40-soluble protein abundance (concentration: 2mM) amounted to 0.9394 ± 0.0088; the NP40-soluble protein abundance (concentration: 4mM) was 0.943 ± 0.016; the NP40-soluble protein abundance (concentration: 6mM) stood at 0.953 ± 0.017; the NP40-soluble protein abundance (concentration: 8mM) worked out at 0.9195 ± 0.0086; the NP40-soluble protein abundance (concentration: 10mM) was determined as 0.94 ± 0.013.
Consider TRIM26 (UniProt Q12899), for which the NP40-soluble protein abundance was determined as 0.886 ± 0.11 (concentration: 1mM); 0.839 ± 0.16 (concentration: 2mM); 0.839 ± 0.11 (concentration: 4mM); 0.778 ± 0.1 (concentration: 6mM); 0.717 ± 0.055 (concentration: 8mM); 0.778 ± 0.048 (concentration: 10mM).
Take UniProt Q06481 and related entries: the NP40-soluble protein abundance amounted to 1.05 ± 0.14 (concentration: 1mM); 0.905 ± 0.089 (concentration: 2mM); 1.06 ± 0.16 (concentration: 4mM); 1.04 ± 0.023 (concentration: 6mM); 1.04 ± 0.11 (concentration: 8mM); 0.908 ± 0.12 (concentration: 10mM).
Consider UniProt Q12959-3|Q12959-2|Q12959-4, for which the NP40-soluble protein abundance reads like this: (concentration: 1mM) 0.982 ± 0.024; (concentration: 2mM) 0.989 ± 0.031; (concentration: 4mM) 0.962 ± 0.05; (concentration: 6mM) 0.966 ± 0.045; (concentration: 8mM) 0.961 ± 0.052; (concentration: 10mM) 0.98 ± 0.027.
Regarding “UniProt Q12933-2|Q12933 and related entries”, the NP40-soluble protein abundance was determined as 0.997 ± 0.006 (concentration: 1mM); 1.01 ± 0.032 (concentration: 2mM); 1.028 ± 0.007 (concentration: 4mM); 1.06 ± 0.066 (concentration: 6mM); 1.065 ± 0.01 (concentration: 8mM); 1.04 ± 0.012 (concentration: 10mM).
For UniProt Q13242, the NP40-soluble protein abundance reads like this: (concentration: 1mM) 1.14 ± 0.1; (concentration: 2mM) 1.24 ± 0.1; (concentration: 4mM) 1.4 ± 0.16; (concentration: 6mM) 1.61 ± 0.18; (concentration: 8mM) 1.54 ± 0.3; (concentration: 10mM) 1.48 ± 0.59.
On to UniProt Q13367 and related entries, for which the NP40-soluble protein abundance turned out to be 1.04 ± 0.081 (concentration: 1mM); 1.01 ± 0.058 (concentration: 2mM); 1.04 ± 0.084 (concentration: 4mM); 1.03 ± 0.089 (concentration: 6mM); 0.94 ± 0.074 (concentration: 8mM); 1 ± 0.1 (concentration: 10mM).
Turning to UniProt Q0VD83 and related entries, the NP40-soluble protein abundance reads like this: (concentration: 1mM) 0.998 ± 0.053; (concentration: 2mM) 1.05 ± 0.11; (concentration: 4mM) 1.03 ± 0.089; (concentration: 6mM) 1.012 ± 0.0083; (concentration: 8mM) 0.972 ± 0.057; (concentration: 10mM) 0.982 ± 0.046.
Consider SORD (UniProt Q00796), for which the NP40-soluble protein abundance is 0.951 ± 0.03 (concentration: 1mM); 0.962 ± 0.028 (concentration: 2mM); 0.938 ± 0.018 (concentration: 4mM); 0.936 ± 0.046 (concentration: 6mM); 0.944 ± 0.037 (concentration: 8mM); 0.958 ± 0.032 (concentration: 10mM).
Turning to UniProt Q13310 and related entries, the NP40-soluble protein abundance was 0.973 ± 0.031 (concentration: 1mM); 0.969 ± 0.032 (concentration: 2mM); 0.951 ± 0.054 (concentration: 4mM); 1.02 ± 0.076 (concentration: 6mM); 0.989 ± 0.049 (concentration: 8mM); 1 ± 0.063 (concentration: 10mM).
Take UniProt Q13303 and related entries: the NP40-soluble protein abundance was 0.915 ± 0.12 (concentration: 1mM); 0.932 ± 0.056 (concentration: 2mM); 0.905 ± 0.022 (concentration: 4mM); 0.826 ± 0.13 (concentration: 6mM); 0.908 ± 0.033 (concentration: 8mM); 0.945 ± 0.041 (concentration: 10mM).
OGDH (UniProt Q02218): the NP40-soluble protein abundance is 1.12 ± 0.015 (concentration: 1mM); 1.05 ± 0.017 (concentration: 2mM); 1.08 ± 0.046 (concentration: 4mM); 1.03 ± 0.058 (concentration: 6mM); 1.11 ± 0.11 (concentration: 8mM); 1.06 ± 0.091 (concentration: 10mM).
Consider UniProt Q13164, for which the NP40-soluble protein abundance runs as follows: (concentration: 1mM) 0.978 ± 0.058; (concentration: 2mM) 1.03 ± 0.052; (concentration: 4mM) 1.02 ± 0.029; (concentration: 6mM) 0.972 ± 0.044; (concentration: 8mM) 0.991 ± 0.068; (concentration: 10mM) 1.01 ± 0.029.
As for CRYZ (UniProt Q08257), the NP40-soluble protein abundance runs as follows: (concentration: 1mM) 0.979 ± 0.085; (concentration: 2mM) 0.988 ± 0.092; (concentration: 4mM) 0.94 ± 0.068; (concentration: 6mM) 0.926 ± 0.12; (concentration: 8mM) 0.95 ± 0.054; (concentration: 10mM) 0.979 ± 0.074.
KEAP1 (UniProt Q14145): the NP40-soluble protein abundance worked out at 0.971 ± 0.13 (concentration: 1mM); 1.03 ± 0.18 (concentration: 2mM); 1.19 ± 0.31 (concentration: 4mM); 1.26 ± 0.54 (concentration: 6mM); 1.04 ± 0.21 (concentration: 8mM); 1.26 ± 0.48 (concentration: 10mM).

Values taken from the supplement of paper PMC6411743.
